Test results from patent publication US12084423B2, “Piperlongumine analogues and uses thereof” (BioVentures, LLC, priority 2018, dated 2024).

Tested on: IR-induced senescent cells (IR-SC WI-38)
Assay: Cell viability of IR-induced senescent WI-38 cells after 72 hours of compound treatment
Format: cell-based
Settings: SI not defined; values match EC50 normal WI-38 / EC50 IR-SC WI-38
Procedure: Normal WI-38 cells and IR-induced senescent cells were incubated with increasing concentrations of compounds of Formula (I). At 72 hours post-treatment cell viability was measured and ED50was calculated. Table 1 depicts the ED50 values of the compounds of Formula (I) against normal and IR-induced senescent cells.

Row | Compound | SI
1 | COc1cc(/C=C/C(=O)N2CCC=C(I)C2=O)cc(OC)c1OC [No 4] | 8.0
2 | COc1ccc(/C=C/C(=O)N2CCC=C(Br)C2=O)cc1 [No 9] | 1.7
3 | COc1cc(/C=C/C(=O)N2CCC=C(F)C2=O)cc(OC)c1OC [No 1] | 0.8
4 | COc1cc(/C=C/C(=O)N2OCC=CC2=O)cc(OC)c1OC [No 7] | 6.0
5 | C=CC(=O)N1OCC=CC1=O [No 12] | 2.9
6 | O=C1C(Br)=CCCN1S(=O)(=O)/C=C/c1ccccc1 [No 16] | 10
7 | O=C1C(Cl)=CCCN1S(=O)(=O)/C=C/c1ccccc1 [No 15] | 9.4
8 | O=C1C(Br)=CCCN1C(=O)c1cc2ccccc2oc1=O [No 13] | 3.6
9 | COc1ccc(/C=C/C(=O)N2CCCC=C(Cl)C2=O)cc1 [No 10] | 9.4
10 | O=C1C(Br)=CCCCN1C(=O)c1cc2ccccc2oc1=O [No 14] | 1.3
11 | COc1cc(/C=C/C(=O)N2CCCC=C(Br)C2=O)cc(OC)c1OC [No 6] | 6.4
12 | COc1cc(/C=C/C(=O)N2CCCC=C(Cl)C2=O)cc(OC)c1OC [No 5] | 3.8
13 | COc1ccc(/C=C/C(=O)N2CCCC=C(Br)C2=O)cc1 [No 11] | 4.5
14 | COc1cc(/C=C/C(=O)N2CCC=C(Cl)C2=O)cc(OC)c1OC [No 2] | 8.2
15 | COc1ccc(/C=C/C(=O)N2CCC=C(Cl)C2=O)cc1 [No 8] | 0.7
16 | COc1cc(/C=C/C(=O)N2CCC=C(Br)C2=O)cc(OC)c1OC [No 3] | 10.4
